Experimental data as given in PMC4904285.
No constants are given. Whether binding was seen depends on the method and setting. In cells and extracts the contact can be indirect. Some entries that bind do so weakly or less than the wild type.

Protein sequences, listed by entry. Tags and fused reporters are not part of them.
UniProt Q9NFU0: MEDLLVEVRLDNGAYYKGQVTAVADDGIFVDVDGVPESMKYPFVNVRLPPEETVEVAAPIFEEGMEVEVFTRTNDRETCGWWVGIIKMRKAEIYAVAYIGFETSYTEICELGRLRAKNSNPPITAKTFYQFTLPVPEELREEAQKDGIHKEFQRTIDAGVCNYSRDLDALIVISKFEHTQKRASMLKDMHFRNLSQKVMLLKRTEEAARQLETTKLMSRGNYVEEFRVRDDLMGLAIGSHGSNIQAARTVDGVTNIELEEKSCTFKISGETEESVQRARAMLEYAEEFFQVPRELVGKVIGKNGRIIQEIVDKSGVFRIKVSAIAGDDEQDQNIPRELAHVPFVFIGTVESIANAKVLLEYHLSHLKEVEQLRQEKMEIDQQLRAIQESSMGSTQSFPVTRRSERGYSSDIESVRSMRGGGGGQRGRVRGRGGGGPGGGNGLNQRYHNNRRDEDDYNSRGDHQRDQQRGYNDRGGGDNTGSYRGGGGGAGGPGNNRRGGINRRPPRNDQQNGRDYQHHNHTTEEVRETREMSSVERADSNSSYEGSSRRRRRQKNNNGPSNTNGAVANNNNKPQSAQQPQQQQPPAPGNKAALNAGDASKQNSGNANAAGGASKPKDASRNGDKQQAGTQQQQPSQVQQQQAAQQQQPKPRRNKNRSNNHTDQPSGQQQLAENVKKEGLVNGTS

Target: Drosophila Fragile-X mental retardation protein (DFMRP) (Drosophila (endogenous in fly brains)) (UniProt Q9NFU0)
Assay: co-IP; fly protein extracts (adult heads or larval body wall muscle preparations with brains) precleared, incubated with mouse anti-DFMRP at 4°C overnight, protein A/G agarose beads, washed 3 times with RIPA buffer, blot with anti-DTor; control, DTor-cDNA and DTor-RNAi expressing brains

binding: binds
B1: Drosophila Torsin (DTor) expressed from UAS-DTor-cDNA (protein, UniProt O77277 25-340)
chain: VDPLTIGAVGAVALGAYFKEHTYCRFAECCDDRNIPARIDELERSLERTLIGQHIVRQHIVPALKAHIASGNKSRKPLVISFHGQPGTGKNFVAEQIADAMYLKGSRSNYVTKYLGQADFPKESEVSNYRVKINNAVRDTLRSCPRSLFIFDEVDKMPSGVFDQLTSLVDYNAFVDGTDNTKAIFIFLSNTAGSHIASHLGSVMKNGRLREDTRLSDFEPLLRKAAYNMDGGMKKTTMIESHVIDHFIPFLPMEKAHVIKCLEAELLRWRRDPKQANNQKIIEDIINSSISYDRTHSLFAISGCKTLEKKVAMAIY
